Measurements: paper PMC12302648
Results are given in words; binding and its absence hold for the method and conditions named. For some assays here: In cells and extracts the contact can be indirect. Some binding calls cover weakened binding; strength is not graded here. For some assays here: Tags and fused reporters may be left off the sequences shown. One block for each binder: values may come before it.

What was measured:
[1] = molecular target: T1, Recombinant GST-tagged MTCH2 fusion protein (UniProt Q791V5); experiment: pull-down; glutathione-agarose beads coated with GST-MTCH2 incubated with His-FGF13 in the binding buffer at 4 °C for 12 h; western blotting with anti-His and anti-GST antibodies; both purified
T1 sequence: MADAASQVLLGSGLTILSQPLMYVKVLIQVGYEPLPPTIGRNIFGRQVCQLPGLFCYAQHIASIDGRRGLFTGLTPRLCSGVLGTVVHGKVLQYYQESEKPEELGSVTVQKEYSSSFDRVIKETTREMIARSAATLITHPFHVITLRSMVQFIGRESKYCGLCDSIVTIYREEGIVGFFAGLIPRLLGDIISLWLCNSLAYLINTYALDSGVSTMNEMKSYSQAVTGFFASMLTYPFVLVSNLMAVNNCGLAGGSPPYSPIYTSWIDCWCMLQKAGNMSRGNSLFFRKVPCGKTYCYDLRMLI

[2] = molecular target: T2, Fibroblast growth factor 13 (FGF13), endogenous in mouse primary neurons (mouse (endogenous in primary neurons)) (UniProt P70377); experiment: co-IP; primary neuron lysates incubated with anti-FGF13 or anti-MTCH2 antibodies at 4 °C overnight, Protein A/G PLUS-Agarose, western blotting; control, MPP+-treated and Abacavir-pretreated neurons
T2 sequence: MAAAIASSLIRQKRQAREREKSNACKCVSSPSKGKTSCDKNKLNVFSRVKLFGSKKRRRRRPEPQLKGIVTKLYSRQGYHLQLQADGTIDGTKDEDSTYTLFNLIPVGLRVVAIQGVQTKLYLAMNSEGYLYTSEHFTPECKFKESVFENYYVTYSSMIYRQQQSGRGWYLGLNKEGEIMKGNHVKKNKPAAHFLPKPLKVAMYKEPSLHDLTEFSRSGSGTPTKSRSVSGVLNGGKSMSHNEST

- binding [1]: binds
B1: His-FGF13 fusion protein (protein, UniProt P70377 1-245)
chain: T2 sequence

- binding [2]: binds
B2: MTCH2, endogenous in mouse primary neurons (protein, UniProt Q791V5 1-303)
chain: T1 sequence
